Reference: the supplement of paper PMC10849652
The other results are listed elsewhere or left out.

Amino acid sequences for entries named in this document (tags omitted). A change or cut given only in a name is not applied to a line headed by its entry.
UniProt Q99666, whole entry, looked up: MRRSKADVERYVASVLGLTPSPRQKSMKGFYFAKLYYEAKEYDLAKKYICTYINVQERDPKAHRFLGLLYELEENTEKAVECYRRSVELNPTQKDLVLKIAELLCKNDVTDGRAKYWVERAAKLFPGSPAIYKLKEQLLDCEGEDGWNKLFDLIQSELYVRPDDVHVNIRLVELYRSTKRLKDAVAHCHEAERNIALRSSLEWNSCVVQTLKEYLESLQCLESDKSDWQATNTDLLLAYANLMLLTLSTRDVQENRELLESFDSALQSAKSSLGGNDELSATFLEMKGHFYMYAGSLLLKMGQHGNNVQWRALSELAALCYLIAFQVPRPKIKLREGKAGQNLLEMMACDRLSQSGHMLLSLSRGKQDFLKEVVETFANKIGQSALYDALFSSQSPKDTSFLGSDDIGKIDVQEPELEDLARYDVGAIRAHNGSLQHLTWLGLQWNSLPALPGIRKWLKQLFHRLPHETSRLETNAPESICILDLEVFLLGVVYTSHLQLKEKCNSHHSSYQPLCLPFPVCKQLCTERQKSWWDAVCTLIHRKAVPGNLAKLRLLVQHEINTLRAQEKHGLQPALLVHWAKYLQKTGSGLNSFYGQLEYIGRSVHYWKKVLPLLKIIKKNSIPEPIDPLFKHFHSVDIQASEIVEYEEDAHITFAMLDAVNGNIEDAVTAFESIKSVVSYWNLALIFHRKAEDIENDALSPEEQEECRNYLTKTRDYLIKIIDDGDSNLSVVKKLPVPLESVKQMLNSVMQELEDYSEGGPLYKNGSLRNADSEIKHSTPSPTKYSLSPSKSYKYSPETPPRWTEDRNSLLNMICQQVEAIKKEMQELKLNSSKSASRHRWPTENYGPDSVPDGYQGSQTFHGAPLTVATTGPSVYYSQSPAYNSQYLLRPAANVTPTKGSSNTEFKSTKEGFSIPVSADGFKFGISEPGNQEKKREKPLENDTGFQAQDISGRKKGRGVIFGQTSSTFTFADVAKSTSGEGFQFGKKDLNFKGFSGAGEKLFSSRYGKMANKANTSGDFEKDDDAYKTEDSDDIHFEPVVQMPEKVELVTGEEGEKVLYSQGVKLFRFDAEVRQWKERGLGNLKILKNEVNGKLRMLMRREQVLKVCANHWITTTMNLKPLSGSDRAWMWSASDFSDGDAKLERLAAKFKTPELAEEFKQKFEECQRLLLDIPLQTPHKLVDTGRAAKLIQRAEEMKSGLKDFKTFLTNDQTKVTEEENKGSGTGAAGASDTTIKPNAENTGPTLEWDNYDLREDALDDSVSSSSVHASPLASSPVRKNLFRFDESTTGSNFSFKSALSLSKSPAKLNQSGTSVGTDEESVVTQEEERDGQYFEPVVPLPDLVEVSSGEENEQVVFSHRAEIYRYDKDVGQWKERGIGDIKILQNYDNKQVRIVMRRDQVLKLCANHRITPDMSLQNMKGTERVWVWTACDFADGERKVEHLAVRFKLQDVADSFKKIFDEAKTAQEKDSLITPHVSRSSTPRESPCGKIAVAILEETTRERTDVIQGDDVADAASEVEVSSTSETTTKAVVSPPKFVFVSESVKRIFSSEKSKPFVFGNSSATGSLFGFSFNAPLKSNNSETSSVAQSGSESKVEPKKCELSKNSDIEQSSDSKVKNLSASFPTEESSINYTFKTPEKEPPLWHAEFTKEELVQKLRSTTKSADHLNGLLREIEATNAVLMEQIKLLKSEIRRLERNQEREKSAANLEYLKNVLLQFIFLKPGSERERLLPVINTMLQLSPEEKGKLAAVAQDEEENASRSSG
UniProt Q8TC12: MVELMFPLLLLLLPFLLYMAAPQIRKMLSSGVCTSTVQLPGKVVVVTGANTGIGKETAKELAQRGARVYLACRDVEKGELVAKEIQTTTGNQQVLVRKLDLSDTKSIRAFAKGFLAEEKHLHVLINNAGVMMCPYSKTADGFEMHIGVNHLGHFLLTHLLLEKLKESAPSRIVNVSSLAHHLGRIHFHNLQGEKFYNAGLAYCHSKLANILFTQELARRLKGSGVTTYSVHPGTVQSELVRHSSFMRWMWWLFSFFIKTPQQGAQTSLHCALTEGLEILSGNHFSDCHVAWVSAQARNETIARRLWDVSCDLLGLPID
UniProt P51606: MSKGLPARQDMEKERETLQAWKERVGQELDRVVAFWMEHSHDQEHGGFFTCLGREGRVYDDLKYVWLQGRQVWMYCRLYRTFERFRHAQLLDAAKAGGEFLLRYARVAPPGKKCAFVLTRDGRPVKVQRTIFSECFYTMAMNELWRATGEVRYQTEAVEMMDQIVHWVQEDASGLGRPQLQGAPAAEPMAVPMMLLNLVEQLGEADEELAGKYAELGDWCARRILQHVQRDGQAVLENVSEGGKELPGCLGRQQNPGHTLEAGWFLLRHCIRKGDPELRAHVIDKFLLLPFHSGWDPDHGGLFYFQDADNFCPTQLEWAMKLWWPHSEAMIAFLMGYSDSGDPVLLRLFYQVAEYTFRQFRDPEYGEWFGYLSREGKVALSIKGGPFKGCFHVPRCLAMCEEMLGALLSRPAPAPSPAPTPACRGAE
UniProt Q16576, whole entry, looked up: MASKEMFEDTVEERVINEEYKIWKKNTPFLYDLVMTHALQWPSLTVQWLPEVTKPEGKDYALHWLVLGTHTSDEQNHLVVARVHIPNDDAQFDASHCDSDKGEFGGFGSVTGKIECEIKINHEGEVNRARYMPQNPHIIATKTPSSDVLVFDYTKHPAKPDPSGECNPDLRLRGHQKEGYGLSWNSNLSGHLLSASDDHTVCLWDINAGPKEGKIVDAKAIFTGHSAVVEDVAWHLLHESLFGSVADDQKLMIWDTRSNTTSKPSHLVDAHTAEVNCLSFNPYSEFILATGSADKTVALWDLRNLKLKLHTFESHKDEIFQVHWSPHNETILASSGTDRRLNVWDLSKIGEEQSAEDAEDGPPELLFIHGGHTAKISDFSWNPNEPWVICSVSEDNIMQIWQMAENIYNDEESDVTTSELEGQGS
UniProt Q5T8P6: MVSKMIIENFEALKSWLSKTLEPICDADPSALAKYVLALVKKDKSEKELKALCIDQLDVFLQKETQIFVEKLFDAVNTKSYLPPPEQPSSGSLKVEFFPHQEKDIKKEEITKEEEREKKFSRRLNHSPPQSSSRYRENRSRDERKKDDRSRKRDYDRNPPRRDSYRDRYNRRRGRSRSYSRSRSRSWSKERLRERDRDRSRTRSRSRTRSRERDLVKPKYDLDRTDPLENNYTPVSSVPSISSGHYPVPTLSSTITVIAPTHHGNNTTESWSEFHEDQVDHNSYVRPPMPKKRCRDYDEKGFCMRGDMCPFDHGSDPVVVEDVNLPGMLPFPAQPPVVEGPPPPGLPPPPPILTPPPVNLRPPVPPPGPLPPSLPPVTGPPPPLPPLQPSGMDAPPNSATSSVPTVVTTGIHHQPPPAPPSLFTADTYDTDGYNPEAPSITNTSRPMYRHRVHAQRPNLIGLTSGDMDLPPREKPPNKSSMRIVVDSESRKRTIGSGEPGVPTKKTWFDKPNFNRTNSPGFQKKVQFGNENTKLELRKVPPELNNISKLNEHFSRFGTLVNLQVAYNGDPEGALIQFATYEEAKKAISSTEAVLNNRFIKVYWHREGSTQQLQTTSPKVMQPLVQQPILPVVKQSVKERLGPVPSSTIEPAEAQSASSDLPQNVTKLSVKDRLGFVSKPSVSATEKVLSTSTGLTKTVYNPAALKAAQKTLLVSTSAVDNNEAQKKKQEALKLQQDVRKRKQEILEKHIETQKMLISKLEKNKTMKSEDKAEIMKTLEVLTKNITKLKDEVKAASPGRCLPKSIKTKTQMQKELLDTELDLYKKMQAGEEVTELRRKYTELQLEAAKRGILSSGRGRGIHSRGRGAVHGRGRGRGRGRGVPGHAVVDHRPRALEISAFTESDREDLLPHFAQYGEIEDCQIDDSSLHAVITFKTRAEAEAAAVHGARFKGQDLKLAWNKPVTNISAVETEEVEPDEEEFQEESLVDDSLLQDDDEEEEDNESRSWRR
UniProt P06400: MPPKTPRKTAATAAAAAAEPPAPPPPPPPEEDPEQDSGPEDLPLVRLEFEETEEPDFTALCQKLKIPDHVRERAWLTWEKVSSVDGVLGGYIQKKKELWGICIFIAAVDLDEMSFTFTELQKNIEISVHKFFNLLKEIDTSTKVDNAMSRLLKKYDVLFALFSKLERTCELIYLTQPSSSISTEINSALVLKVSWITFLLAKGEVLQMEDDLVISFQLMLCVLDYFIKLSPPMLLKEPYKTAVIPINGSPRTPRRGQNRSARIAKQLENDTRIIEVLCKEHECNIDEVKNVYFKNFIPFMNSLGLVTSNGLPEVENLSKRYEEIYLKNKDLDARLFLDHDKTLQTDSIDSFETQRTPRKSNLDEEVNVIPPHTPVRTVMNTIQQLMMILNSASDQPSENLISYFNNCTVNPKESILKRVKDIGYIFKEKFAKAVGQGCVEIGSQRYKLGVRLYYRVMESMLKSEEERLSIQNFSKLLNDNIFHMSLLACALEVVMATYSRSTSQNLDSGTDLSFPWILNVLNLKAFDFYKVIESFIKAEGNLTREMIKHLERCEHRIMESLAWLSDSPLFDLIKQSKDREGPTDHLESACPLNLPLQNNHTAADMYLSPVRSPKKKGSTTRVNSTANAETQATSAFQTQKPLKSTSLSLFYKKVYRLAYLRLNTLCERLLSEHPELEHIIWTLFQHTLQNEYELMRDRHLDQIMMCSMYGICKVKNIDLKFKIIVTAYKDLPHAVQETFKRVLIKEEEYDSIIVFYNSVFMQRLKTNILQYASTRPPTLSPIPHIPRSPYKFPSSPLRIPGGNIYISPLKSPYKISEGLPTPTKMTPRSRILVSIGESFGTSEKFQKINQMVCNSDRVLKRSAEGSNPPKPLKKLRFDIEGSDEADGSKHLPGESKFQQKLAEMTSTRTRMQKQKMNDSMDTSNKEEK
UniProt Q96PK6: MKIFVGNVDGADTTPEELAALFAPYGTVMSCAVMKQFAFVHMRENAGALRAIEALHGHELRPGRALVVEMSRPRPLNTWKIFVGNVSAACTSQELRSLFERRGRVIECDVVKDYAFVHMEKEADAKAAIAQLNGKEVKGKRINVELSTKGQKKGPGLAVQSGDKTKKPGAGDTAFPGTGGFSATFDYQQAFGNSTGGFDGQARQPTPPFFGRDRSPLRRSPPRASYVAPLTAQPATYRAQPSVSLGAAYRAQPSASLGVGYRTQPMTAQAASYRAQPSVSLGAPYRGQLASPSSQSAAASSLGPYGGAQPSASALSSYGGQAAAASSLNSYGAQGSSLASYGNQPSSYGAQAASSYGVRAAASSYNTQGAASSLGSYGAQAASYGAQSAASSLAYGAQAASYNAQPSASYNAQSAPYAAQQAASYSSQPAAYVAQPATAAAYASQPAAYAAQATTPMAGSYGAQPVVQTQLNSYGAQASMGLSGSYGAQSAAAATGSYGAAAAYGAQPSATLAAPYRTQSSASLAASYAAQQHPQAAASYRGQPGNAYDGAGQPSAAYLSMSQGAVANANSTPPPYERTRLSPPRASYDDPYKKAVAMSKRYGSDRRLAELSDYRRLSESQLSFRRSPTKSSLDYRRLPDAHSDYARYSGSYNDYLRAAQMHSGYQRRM
UniProt P48382: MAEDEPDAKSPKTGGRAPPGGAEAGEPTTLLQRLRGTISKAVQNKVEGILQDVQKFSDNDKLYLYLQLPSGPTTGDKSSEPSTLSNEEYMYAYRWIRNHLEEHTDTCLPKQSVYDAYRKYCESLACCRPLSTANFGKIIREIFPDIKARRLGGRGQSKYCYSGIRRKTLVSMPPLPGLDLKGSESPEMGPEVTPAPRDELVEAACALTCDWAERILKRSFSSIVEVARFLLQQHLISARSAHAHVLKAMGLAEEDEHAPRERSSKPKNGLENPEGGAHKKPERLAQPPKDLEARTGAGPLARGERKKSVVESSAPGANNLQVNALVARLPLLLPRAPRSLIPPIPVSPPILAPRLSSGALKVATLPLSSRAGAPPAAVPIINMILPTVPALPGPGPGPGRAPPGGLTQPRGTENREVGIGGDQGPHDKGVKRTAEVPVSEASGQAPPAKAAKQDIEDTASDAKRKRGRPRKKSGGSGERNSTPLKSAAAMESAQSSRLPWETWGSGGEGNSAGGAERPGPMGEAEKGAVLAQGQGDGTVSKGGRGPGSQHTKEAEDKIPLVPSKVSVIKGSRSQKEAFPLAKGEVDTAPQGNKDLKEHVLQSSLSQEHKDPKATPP
UniProt Q9Y2P8: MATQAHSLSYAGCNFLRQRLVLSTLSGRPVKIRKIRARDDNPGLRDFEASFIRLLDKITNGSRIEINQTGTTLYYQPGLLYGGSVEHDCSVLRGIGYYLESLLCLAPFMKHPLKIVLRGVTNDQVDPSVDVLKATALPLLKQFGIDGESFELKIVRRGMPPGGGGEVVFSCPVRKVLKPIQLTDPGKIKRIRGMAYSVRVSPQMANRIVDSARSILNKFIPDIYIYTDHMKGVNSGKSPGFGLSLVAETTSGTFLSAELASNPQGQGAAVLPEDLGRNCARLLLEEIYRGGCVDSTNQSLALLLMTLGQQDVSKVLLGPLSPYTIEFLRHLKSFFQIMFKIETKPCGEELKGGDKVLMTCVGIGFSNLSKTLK

What was measured:
Test in all cases: log2 fold change, soluble protein after heating vs DMSO (PISA); higher = thermal stabilisation; K562 lysate, 10 uM; active = over 0.2 and 3.5 SD of the protein, either way, in both replicates (recomputed)
[1] = compound: Cc1cn(-c2cc(NC(=O)c3ccc(C)c(Nc4nccc(-c5cccnc5)n4)c3)cc(C(F)(F)F)c2)cn1 [nilotinib]
How it was run: (§1)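 Dounce homogenisation of K562 pellets in PBS pH 7.4 with 1 mM MgCl2 produced a crude extract, used at 1 mg/mL protein. Exposure to 10 μM compound lasted 30 min, and aliquots were then heated for 3 min across 48°C-58°C, pooled and brought to 0.5% NP-40 at 4°C. The supernatant after 21,000xg for 90 min was quantified by TMTpro 16plex LC-MS/MS with channel sums equalised. Duplicate values are given as log-two fold change in thermal stability relative to solvent controls.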

[2] = compound: Cc1nc(Nc2n[nH]c3c2CN(C(=O)N[C@H](CN(C)C)c2ccccc2)C3(C)C)c2sccc2n1
How it was run: as §1

[3] = compound: Cc1nc(Nc2ncc(C(=O)Nc3c(C)cccc3Cl)s2)cc(N2CCN(CCO)CC2)n1 [dasatinib]
How it was run: as §1

[4] = compound: Cc1ncc(-c2ccnc(Nc3ccc(S(C)(=O)=O)cc3)n2)n1C(C)C
How it was run: as §1

[5] = compound: Cn1cc(-c2ccc3c(c2)CCN3C(=O)Cc2cccc(C(F)(F)F)c2)c2c(N)ncnc21
How it was run: as §1

[6] = compound: Cn1cc(CNCC2CCN(c3ncc(C(=O)NO)cn3)CC2)c2ccccc21 [quisinostat]
How it was run: as §1

[7] = compound: Cn1cncc1[C@@](N)(c1ccc(Cl)cc1)c1ccc2c(c1)c(-c1cccc(Cl)c1)cc(=O)n2C [tipifarnib]
How it was run: as §1

[8] = compound: NC(=O)Nc1cc(-c2cccc(F)c2)sc1C(=O)N[C@H]1CCCNC1
How it was run: as §1

[9] = compound: NC(=O)c1cnc(N[C@@H]2CCCC[C@@H]2N)nc1Nc1cccc(-n2nccn2)c1
How it was run: as §1

[10] = compound: NC1(c2ccc(-c3nc4ccn5c(=O)[nH]nc5c4cc3-c3ccccc3)cc2)CCC1
How it was run: as §1

Measured: log2 fold change

RGPD5 (UniProt Q99666)
inactive: [1] 0.068 | [2] -0.012 | [3] 0.018 | [4] -0.002 | [5] 0.002 | [6] -0.016 | [7] -0.022 | [8] 0.025 | [9] -0.063 | [10] -0.005

RDH11 (UniProt Q8TC12)
inactive: [1] 0.034 | [2] -0.05 | [3] -0.075 | [4] -0.045 | [5] -0.021 | [6] 0.038 | [7] -0.038 | [8] 0.103 | [9] 0.034 | [10] -0.011

RENBP (UniProt P51606)
inactive: [1] -0.023 | [2] 0.023 | [3] 0.077 | [4] -0.002 | [5] 0.004 | [6] 0.023 | [7] -0.006 | [8] 0.017 | [9] -0.008 | [10] 0.04

RBM5 (UniProt P52756)
inactive: [1] 0.146 | [2] -0.085 | [3] 0.073 | [4] 0.028 | [5] -0.003 | [6] 0.027 | [7] -0.015 | [8] 0.009 | [9] 0.114 | [10] 0.185

RBM34 (UniProt P42696)
inactive: [1] 0.011 | [2] 0.014 | [3] 0.04 | [4] -0.005 | [5] -0.019 | [6] -0.035 | [7] 0.041 | [8] 0.033 | [9] 0.004 | [10] -0.014

REPIN1 isoform 4 (UniProt Q9BWE0)
inactive: [1] 0.034 | [2] 0.013 | [3] 0.055 | [4] -0.023 | [5] -0.035 | [6] -0.021 | [7] 0.007 | [8] 0.043 | [9] 0.005 | [10] -0.013

RECQL (UniProt P46063)
inactive: [1] 0.052 | [2] 0.007 | [3] -0.011 | [4] 0.033 | [5] 0.005 | [6] -0.021 | [7] 0.005 | [8] 0.019 | [9] -0.002 | [10] -0.011

RERE (UniProt Q9P2R6)
inactive: [1] -0.065 | [2] 0.06 | [3] -0.064 | [4] 0.041 | [5] 0.009 | [6] -0.041 | [7] 0.001 | [8] 0.07 | [9] 0.026 | [10] 0.067

RFLNB (UniProt Q8N5W9)
inactive: [1] 0.027 | [2] 0.307 | [3] 0.034 | [4] 0.047 | [5] -0.144 | [6] 0.027 | [7] 0.081 | [8] 0.022 | [9] -0.117 | [10] -0.013

RBBP7 (UniProt Q16576)
inactive: [1] -0.02 | [2] -0.002 | [3] 0.029 | [4] 0.007 | [5] -0.006 | [6] -0.041 | [7] 0.014 | [8] 0.04 | [9] -0.003 | [10] 0.039

RBM26 isoform 2 (UniProt Q5T8P6)
inactive: [1] 0.02 | [2] 0.008 | [3] 0 | [4] -0.01 | [5] 0.026 | [6] -0.011 | [7] 0.029 | [8] -0.006 | [9] 0.016 | [10] 0.054

RASA3 (UniProt Q14644)
inactive: [1] 0.065 | [2] -0.014 | [3] -0.144 | [4] 0.039 | [5] 0.109 | [6] 0.062 | [7] 0.009 | [8] 0.011 | [9] 0.012 | [10] 0.089

REXO2 (UniProt Q9Y3B8)
inactive: [1] 0.01 | [2] 0.005 | [3] -0.02 | [4] -0.002 | [5] -0.023 | [6] 0.001 | [7] 0.067 | [8] 0.002 | [9] -0.001 | [10] 0.027

RBM33 (UniProt Q96EV2)
inactive: [1] 0.016 | [2] -0.03 | [3] -0.035 | [4] -0.03 | [5] 0.023 | [6] -0.061 | [7] 0.08 | [8] -0.003 | [9] -0.041 | [10] 0.041

RDH13 (UniProt Q8NBN7)
inactive: [1] 0.02 | [2] -0.019 | [3] -0.037 | [4] -0.019 | [5] 0.071 | [6] -0.02 | [7] -0.054 | [8] 0.088 | [9] 0.041 | [10] -0.02

Taken from the listing (two entries):
RBM33 (UniProt Q96EV2)
inactive: [1] 0.016 | [2] -0.03 | [3] -0.035 | [4] -0.03 | [5] 0.023 | [6] -0.061 | [7] 0.08 | [8] -0.003 | [9] -0.041 | [10] 0.041

RDH13 (UniProt Q8NBN7)
inactive: [1] 0.02 | [2] -0.019 | [3] -0.037 | [4] -0.019 | [5] 0.071 | [6] -0.02 | [7] -0.054 | [8] 0.088 | [9] 0.041 | [10] -0.02

Additional entries follow.

REXO4 (UniProt Q9GZR2)
inactive: [1] -0.001 | [2] -0.009 | [3] -0.008 | [4] 0.021 | [5] 0.008 | [6] 0.013 | [7] 0.015 | [8] 0.03 | [9] -0.045 | [10] 0.034

REV3L (UniProt O60673)
inactive: [1] -0.126 | [2] -0.013 | [3] -0.133 | [4] 0.026 | [5] -0.039 | [6] -0.422 | [7] -0.251 | [8] -0.042 | [9] 0.14 | [10] -0.064

RB1 (UniProt P06400)
inactive: [1] -0.005 | [2] 0.012 | [3] 0 | [4] -0.021 | [5] 0.016 | [6] -0.001 | [7] 0.004 | [8] -0.031 | [9] 0.014 | [10] 0.025

RCC1L (UniProt Q96I51)
inactive: [1] -0.055 | [2] 0.02 | [3] 0.028 | [4] -0.034 | [5] 0.091 | [6] 0.008 | [7] 0.04 | [8] -0.012 | [9] 0.031 | [10] 0.004

RBM14 (UniProt Q96PK6)
inactive: [1] -0.013 | [2] 0.019 | [3] -0.001 | [4] -0.003 | [5] 0.058 | [6] 0.03 | [7] -0.012 | [8] -0.035 | [9] -0.016 | [10] 0.038

RDX (UniProt P35241)
inactive: [1] -0.003 | [2] -0.006 | [3] 0.037 | [4] 0.048 | [5] -0.008 | [6] 0.047 | [7] 0.013 | [8] -0.007 | [9] 0.002 | [10] 0.006

RFESD isoform 2 (UniProt Q8TAC1)
inactive: [1] 0.015 | [2] -0.001 | [3] -0.019 | [4] 0.035 | [5] 0.031 | [6] 0.024 | [7] -0.016 | [8] 0.003 | [9] -0.004 | [10] 0

REV1 (UniProt Q9UBZ9)
inactive: [1] 0.012 | [2] 0.043 | [3] 0.05 | [4] -0.038 | [5] -0.001 | [6] 0.038 | [7] -0.031 | [8] -0.057 | [9] -0.005 | [10] 0.03

RFX5 (UniProt P48382)
inactive: [1] -0.029 | [2] -0.043 | [3] -0.084 | [4] -0.023 | [5] -0.007 | [6] -0.016 | [7] -0.008 | [8] 0.019 | [9] -0.004 | [10] 0.016

RCL1 (UniProt Q9Y2P8)
inactive: [1] -0.025 | [2] -0.04 | [3] -0.072 | [4] -0.012 | [5] 0.06 | [6] -0.021 | [7] -0.021 | [8] -0.069 | [9] -0.004 | [10] 0.039

RAVER1 (UniProt E9PAU2)
inactive: [1] -0.061 | [2] 0.051 | [3] 0.035 | [4] 0.06 | [5] -0.043 | [6] -0.069 | [7] -0.043 | [8] 0.005 | [9] 0.002 | [10] 0.052

RCCD1 (UniProt A6NED2)
inactive: [1] -0.015 | [2] -0.01 | [3] -0.001 | [4] -0.05 | [5] -0.055 | [6] 0.032 | [7] -0.015 | [8] 0.005 | [9] -0.001 | [10] -0.118
